Reference: US6303339A, “DNA segments encoding autoimmune polypeptide epitopes of Ro/ss-A antigen” (Board of Regents, The University of Texas System, priority 1991, dated 2001)
At least one peptide structure holds a part that was inferred or is arguable (an end, a ring closure or a residue). No end group written: not given here.

Assays:
Assay type in all cases: binding
[1] = system: anti-La/SS-B antibodies (human autoimmune serum); assay: ELISA, immobilized peptide reacted with human autoimmune anti-La/SS-B serum; conditions: Antibody: Anti-La/SS-B
[2] = system: anti-Ro/SS-A antibodies (human autoimmune serum); assay: ELISA, immobilized peptide reacted with human autoimmune anti-Ro/SS-A serum
Excerpt: Human antisera. Anti-Ro/SS-A sera were selected by the presence of a single precipitin line in Ouchterlony analysis having complete identify with prototypic sera used in studies of Lieu et al. (17). The absence of antibodies to other nuclear antigens such as La/SS-B, U1 -RNP and Sm was also confirmed by ELISA. Monospecific anti-Sm and anti-La/SS-B human autoimmune sera were originally obtained from the laboratory of Dr. E. M. Tan (Scripps Research Institute, La Jolla, Calif.).
The native Ro/SS-A antigen (5 ug/ml) or synthetic peptide (10 ug/ml) in PBS was added to wells of a microtiter plate and incubated 16 hours at 4° C. The plates were washed with PBS-Tween and the remaining sites were coated with 1% BSA for 1 hour. After washing 3 times with PBS-Tween, sera diluted with 1% BSA, 0.5% bovine gamma globulin (BGG) in PBS-Tween were added and incubated for 2 hours. The plates were then washed 3 times with PBS-Tween. Peroxidase conjugated goat-anti-human IgG diluted 1:3000 in PBS-Tween containing 1% BSA and 0.5% BGG was added and incubated for 2 hours at room temperature. The plates were washed in a similar manner. The color was developed by adding a peroxidase substrate solution containing 1 mg/ml of 2,3'-azino-di-(3-ethyl-benzthiazoline-6-sulfonic acid) (ABTS) and 0.005% H2 O2 in 0.1M McIvaine's buffer, pH 4.6. The optical density was measured using a Titertek Multiskan brand ELISA plate reader.

[3] = system: anti-Sm antibodies (human autoimmune serum); assay: ELISA, immobilized peptide reacted with human autoimmune anti-Sm serum; conditions: Antibody: Anti-Sm
[4] = system: normal human sera; assay: ELISA, immobilized peptide reacted with normal human serum; conditions: Antibody: Normal serum

## CFKEQFLDGDGWTDR [ECS-I, -phe-lys-glu-gln-phe-leu-asp-gly-asp-gly-trp-thr-asp-arg-]
[1]
  ELISA OD405: 0.158
[2]; Antibody: Anti-Ro/SS-A, serum diluted 1:100, peptide immobilized
  ELISA OD405: 1.059
[2]; human autoimmune serum to Ro/SS-A
  binding to anti-Ro/SS-A serum in ELISA (in words): strong binding
[2]; sera preincubated with native Ro/SS-A antigen
  binding of anti-Ro/SS-A sera to the peptide after preincubating the sera with native Ro/SS-A antigen: completely blocked
[3]
  ELISA OD405: 0.236
[4]
  ELISA OD405: 0.118
